Our source for the AC50 values is PubChem BioAssay (NCATS).

The other results are listed elsewhere or left out. Shown are side measurements of this screen, not its main read-out; they come without a call. Compounds called inactive in the main read-out are mostly missing here. Potencies come from curve fits of mixed quality, noted in brackets.

As usually defined, the AC50 is the concentration at which the activity in the assay is half-maximal. Lower therefore signals greater potency.

This assay in a line: A High-Content qHTS Against Drug Library for the Identification of Small Molecules that Inhibit DYT1 Early Onset Primary Dystonia-Associated Cell Pathology (AID 1645839). The note with it: HEK293 Flp-In EGFP-delE TorsinA, punctate imaging, 48 h; measured here: cell count cytotoxicity. The essentials:
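Flp-In T-REx 293 cells with tetracycline-inducible EGFP-delE hTOR1A (WT EGFP-hTOR1A as reference), 800 cells/well; compound added with tetracycline, 48 h at 37 C. Fixed, permeabilized cells imaged; %pathology (punctate TorsinA) primary, cell count counterscreen.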
(In general: Quantitative high-throughput screening tests each substance at several concentrations.)
`CN1CCC(=C2c3ccccc3Sc3ccccc32)CC1`: the AC50 was 25.1 µM [falling, single point]. `C/C(=C(/OCCOc1ccc(Cl)cc1)c1ccc(Cl)cc1Cl)n1ccnc1`: the AC50 was 31.6 µM [falling, single point]. The same measure for `CO/N=C(/C(=O)N[C@@H]1C(=O)N2C(C(=O)OCOC(=O)C(C)(C)C)=C(C)CS[C@H]12)c1csc(N)n1`: 35.5 µM [rising, single point].

For `CCCc1ccc(OCC(=O)N2CCN(C(=O)COc3ccc(CCC)cc3OC)CC2)c(OC)c1`, the AC50 was 10 µM [falling, partial curve, poor fit]. Consider `CCCCNc1ccc(C(=O)OCCN(CC)CC)cc1`, for which the AC50 was 7.94 µM [falling, partial curve, poor fit]. Take `CCC1=C(C)CN(C(=O)NCCc2ccc(S(=O)(=O)NC(=O)NC3CCC(C)CC3)cc2)C1=O` (stereo unspecified): the AC50 was 35.5 µM [falling, single point].

As to `NC(=O)NNc1ccccc1`, the AC50 was 4.47 µM [falling, full curve]. To `CC[C@]12CCCN3CCc4c(n(c5ccccc45)C(=O)C1)[C@@H]32` belongs 1 µM [falling, full curve, poor fit]. With `Cc1nc2n(c(=O)c1CCN1CCC(C(=O)c3ccc(F)cc3)CC1)CCS2`, the AC50 is 22.4 µM [rising, single point]. As to `N/C(=N\N=C\c1ccc(Cl)cc1)N/N=C/c1ccc(Cl)cc1`, the AC50 is 14.1 µM [falling, single point].

On to `Cc1ccc(-c2ccccc2C#N)cc1`, for which the AC50 is 35.5 µM [rising, single point].
